Data as given in PubChem BioAssay AID1224826 (NIAID, 2016)

Test: 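Knock-downs that raise or lower Tnf reporter signal after endotoxin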 (primary screen)
Cells: RAW264.7 G9 macrophages from mouse bearing reporters for p65 (GFP) and the Tnf promoter (mCherry)
Reagent: siRNA pool against mouse genes, 100 nM
Duration: 16 h of LPS stimulation, after 2 days of siRNA transfection
Challenge: bacterial lipopolysaccharide (Salmonella minnesota R595), 10 ng/ml
Measured: 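Imaged Tnf reporter mCherry in nuclei, minus background, normalised per plate to the median and expressed as robust z-scores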
Scale: Tnf reporter robust z-score: higher = stronger Tnf promoter reporter signal after LPS; Tnf reporter intensity: higher = stronger Tnf promoter reporter signal
Call rule: 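Called active when robust z-score is at most -1.3, matching the median of the Tlr4 knock-down control, or over 3; control wells and wells with under 50 cells never active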
Calls: active = Tnf reporter clearly lowered or raised; inactive = no clear change in Tnf reporter
The deposit covers about 17,000 reagents; below is a random part of them. Of all reagents, about 1,110 (6.6%) got an active call. 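Active means lowered or raised reporter signal; replicate intensities are raw and not normalised per plate.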 Reagents against one gene are numbered here. Some reagents were tested in more than one well and are listed for each.

The first 5 entries, ahead of the listing:
target gene | pool no. | Tnf reporter robust z-score | fewer than 50 cells in well | Tnf reporter intensity, replicate 1 | Tnf reporter intensity, replicate 2 | activity call
Glra4 | 1 | 0.87 | enough cells in well | 303 | 30.7 | inactive
Iws1 | 1 | 5.12 | enough cells in well | 526 | 253 | active
Zfp622 | 1 | 0.94 | enough cells in well | 155 | 174 | inactive
Snrpa1 | 1 | – | fewer than 50 cells per well; well left out of calls | 81.6 | 34.7 | inactive
Pdia5 | 1 | -0.41 | enough cells in well | 218 | 149 | inactive

The list itself, from the first entry:
target gene | pool no. | Tnf reporter robust z-score | fewer than 50 cells in well | Tnf reporter intensity, replicate 1 | Tnf reporter intensity, replicate 2 | activity call
Glra4 | 1 | 0.87 | enough cells in well | 303 | 30.7 | inactive
Iws1 | 1 | 5.12 | enough cells in well | 526 | 253 | active
Zfp622 | 1 | 0.94 | enough cells in well | 155 | 174 | inactive
Snrpa1 | 1 | – | fewer than 50 cells per well; well left out of calls | 81.6 | 34.7 | inactive
Pdia5 | 1 | -0.41 | enough cells in well | 218 | 149 | inactive
Nr1i2 | 1 | 0.91 | enough cells in well | 273 | 270 | inactive
Myh8 | 1 | -0.72 | enough cells in well | 150 | 43.2 | inactive
Slc26a10 | 1 | 0 | enough cells in well | 138 | 213 | inactive
Csgalnact1 | 1 | – | fewer than 50 cells per well; well left out of calls | 121 | 64 | inactive
Samt3 | 1 | 2.31 | enough cells in well | 406 | 138 | inactive
Trim25 | 1 | 2.66 | enough cells in well | 206 | 191 | inactive
Or52h1 | 1 | 0.65 | enough cells in well | 142 | 115 | inactive
Cxcl9 | 1 | 0.41 | enough cells in well | 221 | 379 | inactive
Casp1 | 1 | -0.5 | enough cells in well | 122 | 133 | inactive
Hmgn3 | 1 | -0.2 | enough cells in well | 193 | 201 | inactive
Tmem130 | 1 | -0.64 | enough cells in well | 89.6 | 126 | inactive
Irx1 | 1 | 2.37 | enough cells in well | 299 | 268 | inactive
Sox8 | 1 | 0.98 | enough cells in well | 360 | 295 | inactive
Dnmt3a | 1 | 0.89 | enough cells in well | 285 | 284 | inactive
4833444G19Rik | 1 | -0.81 | enough cells in well | 140 | 43 | inactive
Npdc1 | 1 | 0.85 | enough cells in well | 248 | 189 | inactive
Tomm40 | 1 | – | fewer than 50 cells per well; well left out of calls | 204 | 0 | inactive
Or4f56 | 1 | -0.24 | enough cells in well | 170 | 99.7 | inactive
Smtnl2 | 1 | 0.08 | enough cells in well | 201 | 168 | inactive
Alkbh6 | 1 | 1.52 | enough cells in well | 328 | 268 | inactive
Gfra3 | 1 | 0.04 | enough cells in well | 300 | 202 | inactive
D630023F18Rik | 1 | 1.68 | enough cells in well | 342 | 214 | inactive
Nox4 | 1 | 0.78 | enough cells in well | 284 | 151 | inactive
Ceacam14 | 1 | 0.35 | enough cells in well | 169 | 217 | inactive
Becn1 | 1 | -0.8 | enough cells in well | 80.3 | 121 | inactive
Snu13 | 1 | – | fewer than 50 cells per well; well left out of calls | 103 | 63.5 | inactive
Vegfb | 1 | -0.64 | enough cells in well | 175 | 186 | inactive
Dlc1 | 1 | -1.47 | enough cells in well | 99 | 54.3 | active
Dlc1 | 2 | -0.92 | enough cells in well | 134 | 88.6 | inactive
Spats1 | 1 | 1.84 | enough cells in well | 191 | 135 | inactive
Zfpm1 | 1 | -1.07 | enough cells in well | 48.8 | 79.5 | inactive
Heatr3 | 1 | -0.47 | enough cells in well | 181 | 136 | inactive
Kmt2b | 1 | -0.81 | enough cells in well | 112 | 117 | inactive
P2ry6 | 1 | -0.26 | enough cells in well | 278 | 73.4 | inactive
Pdlim5 | 1 | 0.78 | enough cells in well | 156 | 199 | inactive
Pdlim5 | 1 | 0.18 | enough cells in well | 298 | 111 | inactive
Pecr | 1 | 0 | enough cells in well | 204 | 211 | inactive
Plcb3 | 1 | -0.16 | enough cells in well | 256 | 162 | inactive
Glmp | 1 | -0.52 | enough cells in well | 235 | 45.5 | inactive
Bmyc | 1 | 0.84 | enough cells in well | 24.5 | 211 | inactive
Oas1d | 1 | 0.23 | enough cells in well | 240 | 131 | inactive
Plaa | 1 | 0.58 | enough cells in well | 316 | 210 | inactive
Kctd20 | 1 | 1.22 | enough cells in well | 289 | 119 | inactive
Speg | 1 | 0.06 | enough cells in well | 185 | 157 | inactive
Herc4 | 1 | 0.21 | enough cells in well | 192 | 143 | inactive
4930583K01Rik | 1 | – | fewer than 50 cells per well; well left out of calls | 719 | 78.6 | inactive
Cd2 | 1 | 0.5 | enough cells in well | 234 | 295 | inactive
Pudp | 1 | -0.29 | enough cells in well | 188 | 78.2 | inactive
C2 | 1 | 0.51 | enough cells in well | 138 | 234 | inactive
Hspb1 | 1 | 1.71 | enough cells in well | 342 | 326 | inactive
Plekha8 | 1 | -0.68 | enough cells in well | 75.2 | 124 | inactive
Tssk5 | 1 | – | fewer than 50 cells per well; well left out of calls | 238 | 59.6 | inactive
Dock8 | 1 | – | fewer than 50 cells per well; well left out of calls | 220 | 176 | inactive
Dock8 | 2 | -0.06 | enough cells in well | 161 | 155 | inactive
Dnajc10 | 1 | -0.53 | enough cells in well | 167 | 86 | inactive
Fktn | 1 | 0.18 | enough cells in well | 227 | 262 | inactive
Hs3st3a1 | 1 | -1.33 | enough cells in well | 150 | 81.3 | active
Hes6 | 1 | -0.16 | enough cells in well | 207 | 194 | inactive
Mrps16 | 1 | -0.24 | enough cells in well | 259 | 69.5 | inactive
Glmn | 1 | -0.52 | enough cells in well | 239 | 89.5 | inactive
Fosl2 | 1 | -0.27 | enough cells in well | 270 | 180 | inactive
Or4c105 | 1 | 0.28 | enough cells in well | 184 | 182 | inactive
Arv1 | 1 | 0.18 | enough cells in well | 227 | 114 | inactive
Lrrc75b | 1 | -0.44 | enough cells in well | 110 | 222 | inactive
Ift43 | 1 | – | fewer than 50 cells per well; well left out of calls | 138 | 42.8 | inactive
Atp5if1 | 1 | 0.17 | enough cells in well | 188 | 167 | inactive
Slc22a26 | 1 | -0.21 | enough cells in well | 171 | 217 | inactive
Lcn8 | 1 | 2.98 | enough cells in well | 262 | 369 | inactive
4921511C20Rik | 1 | 0.65 | enough cells in well | 207 | 84.1 | inactive
Pgk2 | 1 | -0.37 | enough cells in well | 138 | 172 | inactive
